{"source": "the supplement of paper PMC3334620", "note": "In all, about 33,000 sequences were measured (“E-score (-0.5 to 0.5)”: median about -0.016, highest 2% from about 0.3 on). Some of the results follow."}
{"molecular_target": "T1, Yer184c (UniProt P39961)", "T1 sequence": "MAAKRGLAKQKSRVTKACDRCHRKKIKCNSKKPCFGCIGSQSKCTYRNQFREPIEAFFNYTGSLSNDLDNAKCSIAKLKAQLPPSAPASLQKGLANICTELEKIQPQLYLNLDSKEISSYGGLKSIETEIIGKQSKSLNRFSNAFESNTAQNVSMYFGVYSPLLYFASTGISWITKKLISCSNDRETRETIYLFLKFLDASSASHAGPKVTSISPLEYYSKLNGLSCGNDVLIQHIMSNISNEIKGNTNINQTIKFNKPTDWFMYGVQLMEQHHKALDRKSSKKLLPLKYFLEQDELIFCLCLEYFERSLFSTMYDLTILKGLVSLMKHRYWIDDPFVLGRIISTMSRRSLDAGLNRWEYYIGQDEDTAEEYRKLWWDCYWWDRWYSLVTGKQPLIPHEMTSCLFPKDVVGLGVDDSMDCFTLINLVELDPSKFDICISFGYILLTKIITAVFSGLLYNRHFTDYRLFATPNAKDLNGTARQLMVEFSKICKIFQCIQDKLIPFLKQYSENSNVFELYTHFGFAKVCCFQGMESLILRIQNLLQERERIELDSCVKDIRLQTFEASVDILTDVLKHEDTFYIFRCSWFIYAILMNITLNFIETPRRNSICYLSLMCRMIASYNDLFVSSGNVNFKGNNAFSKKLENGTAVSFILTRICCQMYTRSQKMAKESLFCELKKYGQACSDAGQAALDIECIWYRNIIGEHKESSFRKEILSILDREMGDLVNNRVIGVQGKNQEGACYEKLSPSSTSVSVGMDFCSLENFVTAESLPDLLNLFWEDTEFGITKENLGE", "experiment": "PBM E-score (8-mer binding enrichment) (E-score (-0.5 to 0.5)); higher = stronger / more preferred TF binding", "conditions": "protein concentration: 100 nM; construct: GST-full length", "description": "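Universal 'all 10-mer' protein binding microarrays (Agilent AMADID 015681) probed with GST-tagged S. cerevisiae TFs (full-length or DBD) made by in vitro transcription/translation (PURExpress), about 100-200 nM. Bound TF was detected with fluorescent anti-GST. Each ungapped 8-mer (which stands for itself and its reverse complement) is scored by the PBM enrichment score (E-score), a modified Wilcoxon-Mann-Whitney statistic from -0.5 to +0.5, computed with the Universal PBM Analysis Suite. Scale: above 0.35 generally sequence-specific binding.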"}
{"sequence": "AAGCGGGT", "PBM E-score": -0.106}
{"sequence": "ATTCCCTC", "PBM E-score": -0.205}
{"sequence": "CCTTAAGA", "PBM E-score": -0.0222}
{"sequence": "GAACAGAA", "PBM E-score": 0.131}
{"sequence": "CCCGGGCG", "PBM E-score": 0.273}
{"sequence": "ACGTACTG", "PBM E-score": -0.135}
{"sequence": "CACGTAGG", "PBM E-score": -0.297}
{"sequence": "CGGAATTC", "PBM E-score": 0.277}
{"sequence": "ACCGTGCC", "PBM E-score": -0.0925}
{"sequence": "CTTATTAC", "PBM E-score": 0.101}
{"sequence": "AGCGAGAA", "PBM E-score": -0.0543}
{"sequence": "ACGTATCG", "PBM E-score": -0.0242}
{"sequence": "TCAACAGA", "PBM E-score": 0.0503}
{"sequence": "CGCAGTGC", "PBM E-score": -0.204}
{"sequence": "ACGTGCTC", "PBM E-score": -0.116}
{"sequence": "CAGAAGCA", "PBM E-score": -0.0176}
{"sequence": "ACGGCTCA", "PBM E-score": 0.155}
{"sequence": "ATACTAAC", "PBM E-score": 0.026}
{"sequence": "CTCGGCCA", "PBM E-score": 0.204}
{"sequence": "GCTCAGTA", "PBM E-score": 0.09}
{"sequence": "ACGAGTAA", "PBM E-score": 0.162}
{"sequence": "ATACAGCG", "PBM E-score": -0.0106}
{"sequence": "CTTATAAC", "PBM E-score": 0.163}
{"sequence": "AAAGTTTG", "PBM E-score": 0.115}
{"sequence": "CTACCCAC", "PBM E-score": -0.304}
{"sequence": "ACCTACTG", "PBM E-score": -0.223}
{"sequence": "CTGCGAGA", "PBM E-score": -0.244}
{"sequence": "GATCACCC", "PBM E-score": -0.11}
{"sequence": "ACTGCTGG", "PBM E-score": -0.114}
{"sequence": "CGTGCACC", "PBM E-score": -0.123}
{"sequence": "ACAATTCA", "PBM E-score": 0.0457}
{"sequence": "TCCTGTAA", "PBM E-score": 0.0976}
{"sequence": "ATGTATTC", "PBM E-score": 0.023}
{"sequence": "ACACCTGC", "PBM E-score": -0.0752}
{"sequence": "CGCGTATA", "PBM E-score": -0.106}
{"sequence": "CGGATTAA", "PBM E-score": 0.261}
{"sequence": "AGGGGCAC", "PBM E-score": -0.268}
{"sequence": "GTCCGAAC", "PBM E-score": 0.23}
{"sequence": "CACAAACG", "PBM E-score": 0.249}
{"sequence": "CCGTGGAC", "PBM E-score": -0.074}
{"sequence": "AGTGGACA", "PBM E-score": 0.00221}
{"sequence": "CGGGATAA", "PBM E-score": 0.268}
{"sequence": "AGTTCAGG", "PBM E-score": -0.19}
{"sequence": "CGAATTTC", "PBM E-score": 0.276}
{"sequence": "CACTAGAA", "PBM E-score": -0.0913}
{"sequence": "CACCTCCG", "PBM E-score": 0.181}
{"sequence": "ATCTAGCG", "PBM E-score": -0.172}
{"sequence": "CCTTTGGC", "PBM E-score": -0.189}
{"sequence": "AACAACTA", "PBM E-score": 0.0541}
{"sequence": "TCCAGCGA", "PBM E-score": -0.0333}
{"sequence": "CGAGGAGC", "PBM E-score": -0.00945}
{"sequence": "GCAACTAC", "PBM E-score": -0.0554}
{"sequence": "CACGGGCC", "PBM E-score": -0.0449}
{"sequence": "GTTACCGA", "PBM E-score": 0.177}
{"sequence": "CTCTATGC", "PBM E-score": -0.146}
{"sequence": "CACGACTA", "PBM E-score": -0.145}
{"sequence": "GCTAGCCA", "PBM E-score": -0.242}
{"sequence": "TAGAACAA", "PBM E-score": 0.113}
{"sequence": "CCAACGAA", "PBM E-score": -0.0383}
{"sequence": "CTGAACCC", "PBM E-score": -0.0694}
{"sequence": "GCGACAAC", "PBM E-score": 0.106}
{"sequence": "AAGTAACC", "PBM E-score": -0.0344}
{"sequence": "GAAGTTCC", "PBM E-score": -0.0325}
{"sequence": "GTACTCCA", "PBM E-score": -0.158}
{"sequence": "GAATTCTA", "PBM E-score": 0.148}
{"sequence": "CCTCATTC", "PBM E-score": -0.0875}
{"sequence": "TAGACCGA", "PBM E-score": 0.105}
{"sequence": "GCCTAATA", "PBM E-score": -0.0645}
{"sequence": "ATGCGTCA", "PBM E-score": -0.143}
{"sequence": "ATCGTATG", "PBM E-score": -0.132}
{"sequence": "CTATAAAA", "PBM E-score": 0.167}
{"sequence": "CACGACAC", "PBM E-score": 0.0282}
{"sequence": "CCACAAGA", "PBM E-score": 0.0207}
{"sequence": "CCGGCGGC", "PBM E-score": 0.291}
{"sequence": "GGATAAAA", "PBM E-score": 0.248}
{"sequence": "ATAGCATG", "PBM E-score": -0.224}
{"sequence": "AGACACAC", "PBM E-score": -0.179}
{"sequence": "CGAACCCC", "PBM E-score": -0.191}
{"sequence": "ATGTTGTC", "PBM E-score": -0.0701}
{"sequence": "AGGTGCGC", "PBM E-score": -0.0417}
{"sequence": "GCCAAGCA", "PBM E-score": -0.219}
{"sequence": "ATAGCCCC", "PBM E-score": -0.379}
{"sequence": "CCATCAAA", "PBM E-score": -0.0604}
{"sequence": "CAGATCAA", "PBM E-score": -0.0793}
{"sequence": "GTATCATA", "PBM E-score": 0.291}
{"sequence": "ACGTCAGA", "PBM E-score": -0.151}
{"sequence": "CGGTGAAG", "PBM E-score": 0.0982}
{"sequence": "AAGCCTTC", "PBM E-score": -0.173}
{"sequence": "CTGGACTC", "PBM E-score": -0.00465}
{"sequence": "AGTGGGAT", "PBM E-score": -0.0674}
{"sequence": "CCTTCCCA", "PBM E-score": -0.115}
{"sequence": "AAGACCCA", "PBM E-score": -0.172}
{"sequence": "CTAATACA", "PBM E-score": -0.00331}
{"sequence": "AAATAACA", "PBM E-score": 0.161}
{"sequence": "GCACACGC", "PBM E-score": -0.0979}
{"sequence": "CCAGAAGC", "PBM E-score": -0.0398}
{"sequence": "GATACGGC", "PBM E-score": 0.103}
{"sequence": "TAATCTAA", "PBM E-score": 0.0908}
{"sequence": "CGTTGGTC", "PBM E-score": -0.126}
{"sequence": "CCTTTCGC", "PBM E-score": -0.101}
{"sequence": "CACCGTAG", "PBM E-score": -0.0941}
{"sequence": "ACTCCTAT", "PBM E-score": -0.011}
{"sequence": "CGCCCGCG", "PBM E-score": 0.0421}
{"sequence": "CGGGTACA", "PBM E-score": -0.04}
{"sequence": "ACGAGCAC", "PBM E-score": -0.00524}
{"sequence": "ACCTTCAA", "PBM E-score": -0.0661}
{"sequence": "CCATCTCA", "PBM E-score": -0.159}
{"sequence": "CAAGTCGC", "PBM E-score": -0.185}
{"sequence": "AGAAATTG", "PBM E-score": 0.165}
{"sequence": "CTACTCTC", "PBM E-score": -0.112}
